Laboratory results: PubChem BioAssay AID743454 (Peter MacCallum Cancer Centre, 2014)
The deposit covers about 18,000 reagents; shown is a part drawn at random. In the full data, 450 (2.5%) are marked active. 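Single biological run; no consistent viability z cut-off exists, so the class columns, not z-scores, define the calls.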

Test: 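Genes whose loss kills vorinostat-resistant colon cancer cells under vorinostat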 (primary screen)
Cell system: human HCT116-VR colon cancer cells, selected for vorinostat resistance
Reagents: siRNA pool against human genes, 40 nM siRNA pool
Timing: vorinostat for 24 h, read-out about 72 h after transfection
Challenge: vorinostat at 2.5 µM final
Detection: 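Two measures, CellTiter-Fluor viability and luminescent caspase 3/7 activity, each as fold change against same-plate mock wells, mean of duplicates, then screen-wide robust z-score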
Scale: viability robust z-score: higher = more viable cells than screen typical; caspase robust z-score: higher = more caspase 3/7 activity than screen typical
Rule for the call: 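Hits are knock-downs in viability class RV1/RV2 or caspase class CA1/CA2, excluding ones that killed cells in the no-drug cell-count arm; hits then retested with single siRNAs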

After knock-down of SUGT1, the screen gave viability hit class no change; caspase hit class no change; viability robust z-score -0.48; caspase robust z-score 1.52; inactive.
With knock-down of RAB43, the record shows viability hit class no change; caspase hit class no change; viability robust z-score -0.34; caspase robust z-score 2.81; inactive.
RAD54L gave viability hit class no change; caspase hit class no change; viability robust z-score 0.03; caspase robust z-score -0.41; inactive.
Knock-down of MEN1 came out at: viability hit class no change; caspase hit class no change; viability robust z-score -1.81; caspase robust z-score 4.2; inactive.
Depletion of TCAF2 resulted in: viability hit class no change; caspase hit class no change; viability robust z-score -0.23; caspase robust z-score 2.46; inactive.
After knock-down of GATM the results were viability hit class no change; caspase hit class no change; viability robust z-score -2.58; caspase robust z-score -0.08; inactive.

Look-ups from the list:
Result of GATM under “caspase robust z-score”: -0.08
Value for RAD54L under “caspase hit class”: no change

More records follow:
Depletion of TSPO2 came out at: viability hit class no change; caspase hit class no change; viability robust z-score -0.27; caspase robust z-score 3.02; inactive.
For UFC1, the values are viability hit class no change; caspase hit class no change; viability robust z-score 0.5; caspase robust z-score -1.14; inactive.
GAL scored viability hit class no change; caspase hit class no change; viability robust z-score 0.86; caspase robust z-score 0.15; inactive.
Depletion of PILRB resulted in: viability hit class no change; caspase hit class no change; viability robust z-score -0.3; caspase robust z-score 0.19; inactive.
For SLC16A10, the entry reads viability hit class no change; caspase hit class no change; viability robust z-score -1.74; caspase robust z-score 4.21; inactive.
After knock-down of USP9Y, the record shows viability hit class no change; caspase hit class no change; viability robust z-score -0.38; caspase robust z-score 1.62; inactive.
